Test results as given in PubChem BioAssay AID2685 (National Center for Advancing Translational Sciences (NCATS), 2010).
Some of the results follow. The main result of the screen is listed elsewhere. These columns were measured beside it and carry no call. The list favours compounds with an active or inconclusive main result. The note in brackets gives the kind of curve behind each potency; many fits are weak.

Experiment: qHTS Assay for Lipid Storage Modulators in Drosophila S3 Cells;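 on cell number change: cells counted by Cell Tracker Red CMTPX staining in the red channel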
Settings: BODIPY lipid droplet fluorescence, 18-24 h; for cell number change: measured here: cell count max response, cells fed with added oleic acid
How it was run: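 Drosophila S3 cells got compounds at several concentrations plus oleic acid (400 uM solution). Laser-scanning cytometry with 488 nm excitation read lipid droplets at 500-530 nm and cells at 575-640 nm. Percent activity was relative to 20 uM Triacsin C.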

[1] = measured here: lipid fluorescence (Fed channel) AC50, cells fed with added oleic acid
[2] = measured here: cell number channel AC50, cells fed with added oleic acid

Row | SMILES | cell number change [%] | AC50 [1] | AC50 [2]
1 | CCN(CC)S(=O)(=O)c1cc([N+](=O)[O-])ccc1N=Nc1c(O)n(C)c2ccccc12 | 4.83 |  | 
2 | CCn1cc(C(=O)NP(=O)(Nc2ccc(C)cc2)Nc2ccc(C)cc2)c2ccccc21 | -11.5 | 0.164 µM [falling, full curve, poor fit] | 
3 | CCCc1cc(=O)oc2c(C)c(OCC(=O)NC3CC(C)(C)NC(C)(C)C3)ccc12 |  | 29.1 µM [rising, single point] | 
4 | CCCn1c(N)c(C(=O)CSc2nncs2)c(=O)[nH]c1=O | 7.28 | 0.651 µM [falling, single point] | 0.651 µM [falling, single point]
5 | Cc1ccc2nc(CSc3nnc(Nc4ccccc4C)s3)cc(=O)n2c1 | 28.9 | 29.1 µM [rising, single point] | 
6 | COc1cc(N=c2ssnc2Cl)cc(OC)c1 | -60.1 |  | 29.1 µM [falling, single point]
7 | COc1cc(-c2nc3n(n2)C(c2cccc(OC)c2OC)C2=C(CCCC2=O)N3)cc(OC)c1OC (stereo not given) | 25.2 | 20.6 µM [rising, single point] | 
8 | CCC(c1nnc(SCC(=O)NCCc2ccc(Cl)cc2Cl)o1)N(C)C (stereo not given) | 47.6 | 6.51 µM [rising, single point] | 1.3 µM [rising, partial curve]
9 | COc1ccc(C(=O)CC(c2ccccc2)C2C(=O)CCCC2=O)cc1 (stereo not given) | 8.9 |  | 0.00731 µM [rising, full curve, poor fit]
10 | CCCSc1ccc([C@H]2N[C@@](C)(C(=O)OC)[C@H]3C(=O)N(C)C(=O)[C@@H]23)cc1 |  | 13 µM [rising, partial curve, poor fit] | 
11 | O=C(OC(C(=O)NC1CCCCC1)c1ccccc1F)c1ccco1 (stereo not given) | 3.75 | 0.00651 µM [falling, full curve, poor fit] | 
12 | C=CCn1c(SCC(=O)Nc2cc(C)nn2-c2ccccc2)nnc1C1CCCCC1 | 26.4 | 0.326 µM [rising, full curve] | 
13 | CSc1n[nH]c(/N=C/c2oc(O)c3ccccc23)n1 | -21 | 25.9 µM [falling, single point] | 6.51 µM [falling, single point]
14 | COc1ccc(C(=O)Sc2ccc(Cl)cc2)cc1OC | -25.5 | 3.26 µM [falling, single point] | 
15 | CC1CCCCN1C(=O)C(=O)c1cn(CC(=O)N2CCCCCC2)c2ccccc12 (stereo not given) | 2.27 | 2.91 µM [falling, partial curve] | 
16 | O=C(N/N=C/c1ccc(Br)cc1)c1ccccc1-n1cccc1 | -16.2 |  | 
17 | CCOC(=O)C1C(c2ccc(O)c(O)c2)NC(=S)NC1(O)C(F)(F)F (stereo not given) | 2.22 |  | 6.51 µM [rising, single point]
18 | COc1cccc(OCC(=O)NC2CCS(=O)(=O)C2)c1 (stereo not given) | 121 | 0.58 µM [rising, single point] | 29.1 µM [rising, single point]
19 | COc1ccc(NS(=O)(=O)c2cc(NS(=O)(=O)c3cccs3)ccc2C)cc1 | 75 | 0.00517 µM [falling, full curve, poor fit] | 29.1 µM [rising, single point]
20 | CCCCNC(=O)c1ccc2c(c1)N(CC)C(=O)CS2 | -39.6 |  | 29.1 µM [falling, single point]

Row | SMILES | cell number change [%] | AC50 [1] | AC50 [2]
21 | CCN(CC)CCNc1nc2ccccc2n1C | -7.05 |  | 
22 | CCOc1ccc(-c2n[nH]c(C)c2Oc2ccc(OC)cc2)c(O)c1 | -85.8 |  | 18.4 µM [falling, partial curve]
23 | Cc1ccccc1OCCn1cc(/C(N)=N/O)c2ccccc21 | 1.43 |  | 6.51 µM [falling, single point]
24 | C(=N\n1cnnc1)/c1cccs1 | -16 | 1.64 µM [falling, partial curve] | 4.61 µM [falling, single point]
25 | COCCSc1nc2c(c(=O)[nH]c(=O)n2C)n1CCCc1ccccc1 | -13.2 |  | 
26 | N#CCCN(Cc1ccncc1)C(=S)NC1CC2C=CC1C2 (stereo not given) | 22.6 | 13 µM [rising, partial curve, poor fit] | 
27 | O=C1CCCN1S(=O)(=O)c1ccc(F)cc1 | -9.94 | 6.51 µM [falling, single point] | 
28 | O=C(Nc1ccccc1C(F)(F)F)c1cc(-c2cccc(O)c2)on1 |  | 0.146 µM [falling, full curve, poor fit] | 
29 | CCc1[nH]nc(C(=O)NC2CCCc3c2cnn3-c2cc(C)cc(C)c2)c1C (stereo not given) | -42.5 | 5.17 µM [falling, full curve] | 7.31 µM [falling, partial curve]
30 | CSc1ccc(/C=C(\NC(=O)c2ccc(C)cc2)C(=O)NN)cc1 | 18 | 29.1 µM [rising, single point] | 
31 | O=C(CCNC(=O)C1CCN(S(=O)(=O)c2ccccc2)CC1)NCc1ccccn1 | 3.4 | 11.6 µM [rising, partial curve] | 
32 | CC1(C(=O)NNC(=O)C2CCCCC2)CC1(Cl)Cl (stereo not given) | -27.7 | 2.31 µM [falling, partial curve, poor fit] | 
33 | O=C(C1CCN(S(=O)(=O)c2cccc3cccnc23)CC1)N1CC=C(c2ccccc2)CC1 | 4.5 | 7.31 µM [rising, partial curve, poor fit] | 
34 | CCCCn1c(SCC(=O)NC(=O)Cc2ccccc2)nc2ccccc2c1=O | -12.3 | 0.0164 µM [falling, full curve, poor fit] | 
35 | N#Cc1ccc(S(=O)(=O)N2CCC(C(=O)Nc3cccc(C(=O)NC4CC4)c3)CC2)cc1 | 6.83 | 1.46 µM [rising, partial curve] | 
36 | O=C(NNC(=O)C1CCN(C(=O)Nc2ccccc2)CC1)c1ccc(F)cc1 | 29.7 | 23.1 µM [rising, single point] | 
37 | CCCCNC(=O)c1onc(CSc2ccc(OC)cc2)c1C(=O)O | 16.4 |  | 
38 | O=C(c1ccco1)N1CCN=C1SCc1ccccc1F | 7.71 |  | 
39 | CCOC(=O)CNC(=O)CSc1nc2cccnc2n1C1CCCCC1 | 14.7 |  | 
40 | Cc1nn(CC(=O)NCc2ccccc2)c(=O)c2ccccc12 | 22.6 | 0.651 µM [rising, single point] | 

Row | SMILES | cell number change [%] | AC50 [1] | AC50 [2]
41 | O=S(=O)(c1ccc(Cl)cc1)N1CCN(c2ccccn2)CC1 | -9.71 | 3.26 µM [falling, partial curve, poor fit] | 
42 | CC1CCN(c2nc3c(c(=O)[nH]c(=O)n3C)n2CCCc2ccccc2)CC1 | 109 | 16.4 µM [rising, partial curve] | 13 µM [rising, partial curve]
43 | O=C(NCC1(c2ccccc2)CCCC1)C(=O)N1CCOCC1 | 15.4 | 7.31 µM [rising, partial curve, poor fit] | 
44 | Cc1ccc(C(=O)N2CCN(c3ccc(NC(=S)NC(=O)Cc4ccccc4)cc3)CC2)cc1 | -36.1 | 6.51 µM [falling, partial curve, poor fit] | 0.0259 µM [falling, full curve, poor fit]
45 | C/C=C/c1ccc(OCC(=O)OCC(=O)Nc2c(C)nn(-c3ccccc3)c2C)c(OC)c1 | 14 |  | 
46 | C/C(Cn1nnc([N+](=O)[O-])n1)=N\NC(=O)c1ccc(O)cc1 | 3.94 |  | 
47 | O=C(c1ccc2nc(-c3ccco3)c(-c3ccco3)nc2c1)N1CCN(c2ccccc2)CC1 |  | 18.4 µM [rising, partial curve] | 0.326 µM [rising, full curve]
48 | O=C(Cn1cnc2c(nnn2Cc2ccc(Cl)cc2)c1=O)NCC1CCCO1 (stereo not given) |  |  | 0.116 µM [falling, full curve, poor fit]
49 | COc1cc(Cl)cc(NC(=O)CCN2CCN(C)CC2)c1 | 5.58 |  | 
50 | C=CCNC(=O)c1cc(Cl)ccn1 | -42.8 |  | 
51 | COc1ccc(C2CC(=O)Oc3ccc(C(C)(C)C)cc32)cc1 (stereo not given) | 12 |  | 
52 | O=C(NCCO)c1ccc2[nH]c3ccccc3c2c1 |  | 2.31 µM [rising, partial curve] | 0.259 µM [rising, partial curve]
53 | CN1CC(c2ccccn2)C2(SC(=S)N(Cc3ccccc3)C2=O)C12C(=O)Nc1ccccc12 (stereo not given) | -36.1 | 3.26 µM [rising, partial curve, poor fit] | 32.6 µM [falling, single point]
54 | O=[N+]([O-])c1ccc(O)c(/C=N\N=C2c3ccccc3-c3ccccc32)c1 | -34.6 | 0.164 µM [falling, full curve] | 7.31 µM [falling, partial curve]
55 | C[C@H](NC(N)=O)C(=O)Nc1ccc(OCc2ccccc2)cc1 | -62.8 | 32.6 µM [falling, partial curve, poor fit] | 29.1 µM [falling, single point]
56 | CC1CN(S(=O)(=O)c2ccc(C(=O)Nc3nc(-c4cc5ccccc5o4)cs3)cc2)CC(C)O1 (stereo not given) | -34.1 | 1.03 µM [falling, partial curve] | 18.4 µM [falling, single point]
57 | O=C(NCCCn1ccnc1)c1nc(Cn2cc([N+](=O)[O-])cn2)no1 | 7.83 |  | 
58 | O=C(CCc1ccccc1)NN1C(=O)C2C3C=CC(O3)C2C1=O (stereo not given) | 98.7 |  | 
59 | Nc1cccc(C(=O)Nc2ccc3nc(-c4cccnc4)[nH]c3c2)c1 |  | 1.64 µM [rising, full curve, poor fit] | 
60 | Nc1c(C(=O)C2CC2)sc2nc(-c3ccccc3)cc(C(F)(F)F)c12 | -17.6 | 4.61 µM [falling, full curve] | 6.51 µM [falling, single point]

Ordered by formula weight (rising): some entries from above.
Row | SMILES | cell number change [%] | AC50 [1] | AC50 [2]
46 | C/C(Cn1nnc([N+](=O)[O-])n1)=N\NC(=O)c1ccc(O)cc1 | 3.94 |  | 
43 | O=C(NCC1(c2ccccc2)CCCC1)C(=O)N1CCOCC1 | 15.4 | 7.31 µM [rising, partial curve, poor fit] | 
41 | O=S(=O)(c1ccc(Cl)cc1)N1CCN(c2ccccn2)CC1 | -9.71 | 3.26 µM [falling, partial curve, poor fit] | 
57 | O=C(NCCCn1ccnc1)c1nc(Cn2cc([N+](=O)[O-])cn2)no1 | 7.83 |  | 
47 | O=C(c1ccc2nc(-c3ccco3)c(-c3ccco3)nc2c1)N1CCN(c2ccccc2)CC1 |  | 18.4 µM [rising, partial curve] | 0.326 µM [rising, full curve]
